One assay has as its system ppGalNAc-T3 sensor. The assay can be described thus: T3 sensor activation Q score (MG/GFP ratio z-score vs DMSO controls) (SD units); higher = more sensor activation (inhibition of ppGalNAc-T3 glycosylation). The settings on record: HEK293 sensor cells; 10 µM; 6 h. As to the method: (§1)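 Cells were treated with compound at 10 uM for 6 h, then MG/GFP ratio was read by flow cytometry (10,000 cells per well, duplicate wells). Q = (R - R_neg)/SD_neg relative to DMSO vehicle controls; the signal rises when the glycosyltransferase is inhibited.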

A further assay has as its system ppGalNAc-T2 sensor. Put plainly: T2 sensor activation Q score (MG/GFP ratio z-score vs DMSO controls) (SD units); higher = more sensor activation (inhibition of ppGalNAc-T2 glycosylation). The settings on record: HEK293 sensor cells; 10 µM; 6 h. How it is done:
as §1

The structures appear in SMILES notation. The list shows a part of the results. Most values lie at the level of the controls, where differences are scatter.

For `CCCN(CCO)Cc1ccc(F)cc1F`, in the assay on ppGalNAc-T3 sensor, the “T3 sensor activation Q score” value was 0.665. Besides, the “T2 sensor activation Q score” value in the assay on ppGalNAc-T2 sensor was 0.45.
Consider `COc1ccc(NCc2cccnc2)cc1`, for which the “T3 sensor activation Q score” value with ppGalNAc-T3 sensor came to 0.445. Besides, in the assay on ppGalNAc-T2 sensor, the “T2 sensor activation Q score” value is -0.985.
Taken in the same sequence, the figures for `Cc1cc(=O)[nH]c(N2CCCCC2)n1` were -0.625 and -0.33.
The matching figures for `O=C(Nc1ccccc1Cl)NC12CC3CC(CC(C3)C1)C2`: -0.485 and 1.07.
Take `O=C(NCC(F)(F)C(F)F)c1ccncc1`: the “T3 sensor activation Q score” value with ppGalNAc-T3 sensor stood at 0.51. Further, the “T2 sensor activation Q score” value in the assay with ppGalNAc-T2 sensor came to 0.265.
With `c1ccc(CN2CCC(NC3C4CC5CC(C4)CC3C5)CC2)cc1` (configuration not stated), the “T3 sensor activation Q score” value with ppGalNAc-T3 sensor is 1.29. Moreover, the “T2 sensor activation Q score” value in the assay on ppGalNAc-T2 sensor was -0.805.

Values taken from the supplement of paper PMC5407854, “Inhibitor of ppGalNAc-T3-mediated O-glycosylation blocks cancer cell invasiveness and lowers FGF23 levels” (eLife, 2017).
